According to patent US8158790B2, “Cyclic amine compound” (Daiichi Sankyo Company, Limited, priority 2006, dated 2012):
Counter-ions that a name gives are not always drawn. Some of these results come from one statement about several compounds together.

What follows are compounds tested against T1, human renin (Homo sapiens, UniProt P00797) (assay: Renin inhibitory activity test, Method 2 (fluorescence-labeled synthetic renin substrate)). Conditions: concentration inhibiting 50% of angiotensin I generation, incubation at 37° C. for 90 minutes.
T1 construct: made in house; host or cells: 293T cells, transient expression; the conditioned medium was used unpurified and treated with trypsin
T1 sequence (P00797 67-406): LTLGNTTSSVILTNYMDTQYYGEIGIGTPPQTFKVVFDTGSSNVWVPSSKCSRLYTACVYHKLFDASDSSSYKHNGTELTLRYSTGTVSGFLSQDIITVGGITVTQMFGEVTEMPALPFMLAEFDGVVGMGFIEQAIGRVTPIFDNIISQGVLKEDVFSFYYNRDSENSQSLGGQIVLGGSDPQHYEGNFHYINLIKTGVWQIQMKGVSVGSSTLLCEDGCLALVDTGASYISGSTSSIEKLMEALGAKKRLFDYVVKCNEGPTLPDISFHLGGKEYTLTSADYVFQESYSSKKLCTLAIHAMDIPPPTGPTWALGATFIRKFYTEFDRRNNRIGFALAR
Format: biochemical

IC50, ≤ 100 nM:
Cc1ccccc1N1CC(C)(C)N(C[C@H](N)[C@@H](O)C[C@@H](C)C(=O)NC2CCCCC2)CC1=O [Example 86, (2R,4S,5S)-5-Amino-6-[2,2-dimethyl-4-(2-methylphenyl)-5-oxopiperazin-1-yl]-4-hydroxy-2-methylhexanoic acid cyclohexylamide hemifumarate]
CC(C)[C@H](C[C@H](O)[C@@H](N)CN1CC(=O)N(c2ccccc2Cl)CC1(C)C)C(=O)NCCC(C)(C)O [Example 39, (2S,4S,5S)-5-Amino-6-[4-(2-chlorophenyl)-2,2-dimethyl-5-oxopiperazin-1-yl]-4-hydroxy-2-isopropylhexanoic acid (3-hydroxy-3-methylbutyl)amide fumarate]
CCCCNC(=O)[C@H](C)C[C@H](O)[C@@H](N)CN1CC(=O)N(c2ccccc2Cl)CC1(C)C [Example 79, (2R,4S,5S)-5-Amino-6-[4-(2-chlorophenyl)-2,2-dimethyl-5-oxopiperazin-1-yl]-4-hydroxy-2-methylhexanoic acid butylamide hemifumarate]
CC(C)CNC(=O)[C@@H](C[C@H](O)[C@@H](N)CN1CC(=O)N(c2cc(F)ccc2F)CC1(C)C)C(C)C [Example 59, (2S,4S,5S)-5-Amino-6-[4-(2,5-difluorophenyl)-2,2-dimethyl-5-oxopiperazin-1-yl]-4-hydroxy-2-isopropylhexanoic acid isobutylamide fumarate]
CC(C)[C@H](C[C@H](O)[C@@H](N)CN1CC(=O)N(c2ccccc2Cl)CC1(C)C)C(=O)Nc1ccccn1 [Example 44, (2S,4S,5S)-5-Amino-6-[4-(2-chlorophenyl)-2,2-dimethyl-5-oxopiperazin-1-yl]-4-hydroxy-2-isopropylhexanoic acid (2-pyridyl)amide fumarate]
CC(C)CCNC(=O)[C@@H](C[C@H](O)[C@@H](N)CN1CC(=O)N(c2ccccc2Cl)CC1(C)C)C(C)C [Example 32, (2S,4S,5S)-5-Amino-6-[4-(2-chlorophenyl)-2,2-dimethyl-5-oxopiperazin-1-yl]-4-hydroxy-2-isopropylhexanoic acid (3-methylbutyl)amide hemifumarate]
CCCCNC(=O)[C@@H](C[C@H](O)[C@@H](N)CN1CC(=O)N(c2ccccc2Cl)CC1(C)C)C(C)C [Example 4, (2S,4S,5S)-5-Amino-6-[4-(2-chlorophenyl)-2,2-dimethyl-5-oxopiperazin-1-yl]-4-hydroxy-2-isopropylhexanoic acid butylamide fumarate]
CCC[C@H](C[C@H](O)[C@@H](N)CN1CC(=O)N(c2ccccc2C)CC1(C)C)C(=O)NCC(C)(C)C [Example 118, (2R,4S,5S)-5-Amino-6-[2,2-dimethyl-4-(2-methylphenyl)-5-oxopiperazin-1-yl]-4-hydroxy-2-propylhexanoic acid (2,2-dimethylpropyl)amide hemifumarate]
C[C@H](C[C@H](O)[C@@H](N)CN1CC(=O)N(c2cccc(F)c2F)CC1(C)C)C(=O)NCC(C)(C)C [Example 89, (2R,4S,5S)-5-Amino-6-[4-(2,3-difluorophenyl)-2,2-dimethyl-5-oxopiperazin-1-yl]-4-hydroxy-2-methylhexanoic acid (2,2-dimethylpropyl)amide hemifumarate]
CC[C@H](C)CNC(=O)[C@H](C)C[C@H](O)[C@@H](N)CN1CC(=O)N(c2cc(F)ccc2C)CC1(C)C [Example 103, (2R,4S,5S)-5-Amino-6-[2,2-dimethyl-4-(5-fluoro-2-methylphenyl)-5-oxopiperazin-1-yl]-4-hydroxy-2-methylhexanoic acid [(S)-2-methylbutyl]amide fumarate]
C[C@H](C[C@H](O)[C@@H](N)CN1CC(=O)N(c2c(F)cccc2F)CC1(C)C)C(=O)NCC(C)(C)C [Example 93, (2R,4S,5S)-5-Amino-6-[4-(2,6-difluorophenyl)-2,2-dimethyl-5-oxopiperazin-1-yl]-4-hydroxy-2-methylhexanoic acid (2,2-dimethylpropyl)amide hemifumarate]
Cc1ccccc1N1CC(C)(C)N(C[C@H](N)[C@@H](O)C[C@H](C(=O)NCC(C)(C)C)C(C)C)CC1=O [Example 51, (2S,4S,5S)-5-Amino-6-[2,2-dimethyl-4-(2-methylphenyl)-5-oxopiperazin-1-yl]-4-hydroxy-2-isopropylhexanoic acid (2,2-dimethylpropyl)amide hemifumarate]
CC(C)CNC(=O)[C@@H](C[C@H](O)[C@@H](N)CN1CC(=O)N(c2ccc(F)cc2F)CC1(C)C)C(C)C [Example 58, (2S,4S,5S)-5-Amino-6-[4-(2,4-difluorophenyl)-2,2-dimethyl-5-oxopiperazin-1-yl]-4-hydroxy-2-isopropylhexanoic acid isobutylamide hemifumarate]
C[C@H](C[C@H](O)[C@@H](N)CN1CC(=O)N(c2ccccc2Cl)CC1(C)C)C(=O)NCC(C)(C)O [Example 78, (2R,4S,5S)-5-Amino-6-[4-(2-chlorophenyl)-2,2-dimethyl-5-oxopiperazin-1-yl]-4-hydroxy-2-methylhexanoic acid (2-hydroxy-2-methylpropyl)amide hemifumarate]
CC(C)[C@H](C[C@H](O)[C@@H](N)CN1CC(=O)N(c2ccccc2Cl)CC1(C)C)C(=O)NCCC(C)(C)C [Example 33, (2S,4S,5S)-5-Amino-6-[4-(2-chlorophenyl)-2,2-dimethyl-5-oxopiperazin-1-yl]-4-hydroxy-2-isopropylhexanoic acid (3,3-dimethylbutyl)amide hemifumarate]
C[C@H](C[C@H](O)[C@@H](N)CN1CC(=O)N(c2ccccc2Cl)CC1(C)C)C(=O)Nc1ccc(F)cc1 [Example 83, (2R,4S,5S)-5-Amino-6-[4-(2-chlorophenyl)-2,2-dimethyl-5-oxopiperazin-1-yl]-4-hydroxy-2-methylhexanoic acid (4-fluorophenyl)amide fumarate]
CC[C@H](C[C@H](O)[C@@H](N)CN1CC(=O)N(c2ccccc2Cl)CC1(C)C)C(=O)NCC(C)C [Example 107, (2R,4S,5S)-5-Amino-6-[4-(2-chlorophenyl)-2,2-dimethyl-5-oxopiperazin-1-yl]-2-ethyl-4-hydroxyhexanoic acid isobutylamide hemifumarate]
CC(C)CNC(=O)[C@@H](C[C@H](O)[C@@H](N)CN1CC(=O)N(c2ccccc2Cl)CC1(C)C)C(C)C [Example 5, (2S,4S,5S)-5-Amino-6-[4-(2-chlorophenyl)-2,2-dimethyl-5-oxopiperazin-1-yl]-4-hydroxy-2-isopropylhexanoic acid isobutylamide hemifumarate]
